The list shows a part of the results. Single values are uncertain, as repeats are few or missing.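 Imaging used 1,536-well plates; nuclei positive for cleaved PARP by antibody were divided by total DNA-stained nuclei to yield the apoptosis fraction. Doses for screening kept most cells viable, and cell lines differ markedly in resting and induced cleaved-PARP levels.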

Holding throughout (test): cleaved PARP positive nuclei fraction relative to DMSO control; melanoma cells; higher = more apoptosis
Common to all, as to conditions: library dose: low library concentration; 72 h

Assay [1] deals with WM115.
The subject of assay [2] is WM1716.
Assay [3] deals with WM1745.
The test system of assay [4] is WM3526.
Assay [5] relates to WM3619.
The test system of assay [6] is WM451Lu.

Regarding `CC(=O)c1c(C)c2cnc(Nc3ccc(N4CCNCC4)cn3)nc2n(C2CCCC2)c1=O` [palbociclib] + O=C(Nc1cccc(Cl)c1)Nc1ncc(CCNc2ncnc3ccsc23)s1 [SNS314] (first compound 0.04 µM, partner dose 0.0008 µM), the “cleaved PARP positive nuclei fraction” value in assay [1] was determined as 240%; in assay [2], 131%; in assay [3] it was 139%; in assay [4], 89%; in assay [5] it was 143%; in assay [6], 134%.
Consider `COc1cc(Nc2ncc(F)c(Nc3ccc4c(n3)NC(=O)C(C)(C)O4)n2)cc(OC)c1OC` [Tamatinib] + CCCCCCCCCCCC1=C(O)C(=O)C=C(O)C1=O [Embelin] (first compound 0.4 µM, partner dose 1.2 µM), for which the “cleaved PARP positive nuclei fraction” value turned out to be 77.4% in assay [1]; 95.2% in assay [2]; 127% in assay [3]; 56.5% in assay [4]; 86% in assay [5]; 57% in assay [6].
Regarding `C[C@]1(c2nc3c(C(N)=O)cccc3[nH]2)CCCN1` [Veliparib] + CCCCCCCCCCCC1=C(O)C(=O)C=C(O)C1=O [Embelin] (first compound 1.4 µM, partner dose 1.2 µM), the “cleaved PARP positive nuclei fraction” value was determined as 49.3% in assay [1]; 75% in assay [2]; 127% in assay [3]; 58.5% in assay [4]; 65.3% in assay [5]; 48.7% in assay [6].
Regarding `C[C@@H]1CCN(C(=O)CC#N)C[C@@H]1N(C)c1ncnc2[nH]ccc12` + O=c1cc(-c2cccc3c2Sc2ccccc2S3)oc(N2CCOCC2)c1 [KU55933] (first compound 1 µM, partner dose 1 µM), the “cleaved PARP positive nuclei fraction” value came to 593% in assay [1]; 52.3% in assay [2]; 93.4% in assay [3]; 612% in assay [4]; 95% in assay [5]; 46.6% in assay [6].
In the case of `Cn1c(Nc2ccc(C(F)(F)F)cc2)nc2cc(Oc3ccnc(-c4ncc(C(F)(F)F)[nH]4)c3)ccc21` + O=C(Nc1ccccc1)c1cc([N+](=O)[O-])ccc1Cl [GW9662] (first compound 0.08 µM, partner dose 2 µM), the “cleaved PARP positive nuclei fraction” value in assay [1] came to 250%; in assay [2], 106%; in assay [3] it was 130%; in assay [4], 393%; in assay [5], 112%; in assay [6], 48.5%.
Take `Nc1cccc2c1CN(C1CCC(=O)NC1=O)C2=O` (stereo not drawn) [lenalidomide] + N#Cc1c(O)c2c(-c3ccc(-c4ccccc4O)cc3)csc2[nH]c1=O [A769662] (first compound 1 µM, partner dose 2 µM): the “cleaved PARP positive nuclei fraction” value in assay [1] came to 55.6%; in assay [2], 268%; in assay [3] it was 113%; in assay [4], 146%; in assay [5], 87.4%; in assay [6], 97.5%.
In the case of `NC(=O)Nc1cc(-c2cccc(F)c2)sc1C(=O)N[C@H]1CCCNC1` + CCc1ccc(CCOc2ccc(CC3SC(=O)NC3=O)cc2)nc1 [pioglitazone] (first compound 0.02 µM, partner dose 2 µM), the “cleaved PARP positive nuclei fraction” value in assay [1] came out at 239%; in assay [2] it was 95.7%; in assay [3], 97%; in assay [4], 76.7%; in assay [5], 268%; in assay [6], 61.7%.
`CC(=O)c1c(C)c2cnc(Nc3ccc(N4CCNCC4)cn3)nc2n(C2CCCC2)c1=O` [palbociclib] + C=CCn1c(=O)c2cnc(Nc3ccc(N4CCN(C)CC4)cc3)nc2n1-c1cccc(C(C)(C)O)n1 [MK1775] (first compound 0.04 µM, partner dose 0.02 µM): the “cleaved PARP positive nuclei fraction” value is 263% in assay [1]; 87.9% in assay [2]; 116% in assay [3]; 417% in assay [4]; 149% in assay [5]; 151% in assay [6].
With `Cn1c(Nc2ccc(C(F)(F)F)cc2)nc2cc(Oc3ccnc(-c4ncc(C(F)(F)F)[nH]4)c3)ccc21` + O=c1cc(-c2cccc3c2Sc2ccccc2S3)oc(N2CCOCC2)c1 [KU55933] (first compound 0.08 µM, partner dose 1 µM), the “cleaved PARP positive nuclei fraction” value in assay [1] worked out at 1230%; in assay [2] it was 132%; in assay [3], 147%; in assay [4] it was 146%; in assay [5], 119%; in assay [6], 79.5%.
Consider `Cc1cc(N2CCOCC2)cc2[nH]c(-c3c(NC[C@@H](O)c4cccc(Cl)c4)cc[nH]c3=O)nc12` + O=C1NC(=O)/C(=C/c2ccc(-c3ccc(F)cc3O)o2)S1 [AS252424] (first compound 0.2 µM, partner dose 1 µM), for which the “cleaved PARP positive nuclei fraction” value in assay [1] stood at 83.7%; in assay [2] it was 49.3%; in assay [3] it was 133%; in assay [4] it was 205%; in assay [5] it was 85.2%; in assay [6] it was 101%.
As for `Cn1cncc1[C@@](N)(c1ccc(Cl)cc1)c1ccc2c(c1)c(-c1cccc(Cl)c1)cc(=O)n2C` [tipifarnib] + O=C(O)c1ccc(-c2c[nH]c3ncc(-c4ccccc4)cc23)cc1C1CCCC1 [GSK650394] (first compound 0.01 µM, partner dose 0.16 µM), the “cleaved PARP positive nuclei fraction” value stood at 109% in assay [1]; 130% in assay [2]; 102% in assay [3]; 41.3% in assay [4]; 108% in assay [5]; 32.9% in assay [6].
As to `CC(=O)c1c(C)c2cnc(Nc3ccc(N4CCNCC4)cn3)nc2n(C2CCCC2)c1=O` [palbociclib] + Cc1nc(Nc2ncc(C(=O)Nc3c(C)cccc3Cl)s2)cc(N2CCN(CCO)CC2)n1 [dasatanib] (first compound 0.04 µM, partner dose 0.004 µM), the “cleaved PARP positive nuclei fraction” value turned out to be 101% in assay [1]; 156% in assay [2]; 132% in assay [3]; 72.3% in assay [4]; 157% in assay [5]; 106% in assay [6].
Turning to `COc1cc(Nc2ncc(F)c(Nc3ccc4c(n3)NC(=O)C(C)(C)O4)n2)cc(OC)c1OC` [Tamatinib] + COc1cc2c(Oc3ccc4[nH]c(C)cc4c3F)ncnc2cc1OCCCN1CCCC1 [cediranib] (first compound 0.4 µM, partner dose 0.4 µM), the “cleaved PARP positive nuclei fraction” value in assay [1] is 108%; in assay [2], 64.3%; in assay [3], 226%; in assay [4] it was 60.7%; in assay [5] it was 102%; in assay [6], 61.9%.

For the origin of these results see the supplement of paper PMC4604168 (melanoma cell lines).
